Measurements published in PubChem BioAssay AID2685 (National Center for Advancing Translational Sciences (NCATS), 2010).
The list shows a part of the results. Shown are side measurements of this screen, not its main read-out; they come without a call. Compounds called inactive in the main read-out are mostly missing here. Potencies come from curve fits of mixed quality, noted in brackets.

Test: qHTS Assay for Lipid Storage Modulators in Drosophila S3 Cells;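 for cell number change: cells counted by Cell Tracker Red CMTPX staining in the red channel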
Conditions: BODIPY lipid droplet fluorescence, 18-24 h; for cell number change: measured here: cell count max response, cells fed with added oleic acid
Outline: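 Drosophila S3 cells loaded with oleic acid (400 uM, as added) and compounds at several concentrations; lipid droplets imaged by 488-nm laser-scanning cytometry, 500–530 nm intensity and object ratio to cell channel. Percent activity normalized to 20 uM Triacsin C.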

[1] = measured here: cell number channel AC50, cells fed with added oleic acid
[2] = measured here: lipid fluorescence (Fed channel) AC50, cells fed with added oleic acid

| Compound | cell number change [%] | AC50 [1] | AC50 [2] |
| --- | --- | --- | --- |
| COc1cccc(OCc2cc(C(=O)N3CCNC(=O)C3Cc3ccccc3)no2)c1 (stereo not drawn) | 24.4 |  |  |
| O=C(NC(=S)NCCCN1CCOCC1)c1cccc2ccccc12 | 63.8 | 18.4 µM [rising, single point] |  |
| CSCCC(NC(N)=O)C(=O)NCc1ccc(Cl)cc1 (stereo not drawn) | 33.5 |  |  |
| Cc1ccnc2nc(C(=O)OCC(=O)NC3CCC(C)CC3)nn12 (stereo not drawn) | -10.9 |  |  |
| C/C(CCC(=O)OC[C@H]1O[C@H](C#Cc2ccccc2)C=C[C@@H]1Oc1ccc(C)cc1)=N\OC[C@@H](O)[C@H]1O[C@@H]2OC(C)(C)O[C@@H]2[C@H]1O | -11.4 |  | 32.6 µM [rising, single point] |
| COc1ccc(C)cc1Nc1nc(N)c2ccccc2n1 | -32.8 | 25.9 µM [falling, single point] |  |
| COc1ccccc1N1CCN(c2ncnc3sc(C(=O)NCC4CCCO4)c(C)c23)CC1 (stereo not drawn) | -19.2 |  | 2.06 µM [falling, full curve] |
| CCC(C)c1ccc(NC(=O)N2CCN(C(=O)C3CCCO3)CC2)cc1 (stereo not drawn) | 11 |  | 5.8 µM [falling, single point] |
| CSCc1cc(N(C)c2ccccc2)nc(-c2ccccc2)n1 | 17.6 |  | 29.1 µM [rising, single point] |
| CCC1Nc2ncnc(N3CCCCC3)c2N(Cc2ccccc2)C1=O (stereo not drawn) | 32.3 | 18.4 µM [rising, single point] |  |
| COc1ccc(-c2cc(C(=O)N3CCN(C(=O)c4ccccc4F)CC3)[nH]n2)cc1 | 38.1 | 4.11 µM [rising, full curve] |  |
| C=C(C)CNC(=S)N=Nc1c(O)[nH]c2ccc([N+](=O)[O-])cc12 |  | 0.103 µM [rising, partial curve, poor fit] | 0.116 µM [rising, single point] |
| NC(=O)c1ccccc1NCC(=O)c1ccc(F)cc1 | 2.78 |  | 0.58 µM [falling, single point] |
| CC(=O)N(C)c1ccc(NC(=O)COc2ccc(Br)cc2C)cc1 | -0.946 |  | 11.6 µM [rising, partial curve] |
| COc1cccc(C2c3c(oc4ccc(Cl)cc4c3=O)C(=O)N2c2cc(C)on2)c1OC (stereo not drawn) | -7.3 |  |  |
| CCOC(=O)c1c(C)[nH]c(C(=O)N/N=C/c2ccc(OC)c(OC)c2)c1C | -5.66 |  | 0.411 µM [rising, partial curve, poor fit] |
| CC(C)CN1CCNC(=O)C1CC(=O)NCCc1ccc(C(F)(F)F)cc1 (stereo not drawn) | -16.5 |  |  |
| CN(NC1OC(=O)c2ccccc21)c1ccccc1[N+](=O)[O-] (stereo not drawn) | 21.4 | 2.31 µM [falling, single point] | 3.26 µM [falling, single point] |
| NC(=O)CCCn1c(C(=O)c2ccc(Cl)cc2)c2ccc([N+](=O)[O-])cc2[n+]1[O-] | -36.7 | 3.66 µM [falling, full curve] | 0.461 µM [falling, partial curve] |
| CCN(CC(=O)Nc1ccccc1C(F)(F)F)C(=O)CCOc1ccc(C)cc1 | -27.3 |  | 6.51 µM [falling, single point] |

| Compound | cell number change [%] | AC50 [1] | AC50 [2] |
| --- | --- | --- | --- |
| CC(NC(=O)Nc1ccc(Cl)cc1)c1ccc2c(c1)OCO2 (stereo not drawn) | -21.3 | 0.651 µM [rising, full curve, poor fit] |  |
| CCOCC(=O)Nc1ccc(S(=O)(=O)NCC2CCCO2)cc1 (stereo not drawn) | 5.74 |  |  |
| O=C(Nc1ccc(OC(F)(F)F)cc1)C1CCCN(S(=O)(=O)c2cnc[nH]2)C1 (stereo not drawn) | 7.03 |  | 29.1 µM [rising, single point] |
| COc1ccc(C(=O)NCCCNC(=O)c2ccc(C)nc2)cc1 | 14.8 |  | 0.13 µM [falling, full curve, poor fit] |
| Cc1cc(C(=O)COC(=O)c2cc(Cl)ccc2N)c(C)n1Cc1ccco1 | 32.9 |  |  |
| COc1ccc(CCn2c(N3CCN(C)CC3)nc3c2c(=O)[nH]c(=O)n3C)cc1 | 27 |  | 6.51 µM [rising, single point] |
| COc1cc(NC(=O)c2ccccc2)c(OC)cc1NC(=O)CN1C(=O)N(C)C2(CCCCC2)C1=O | 24.5 |  |  |
| Cc1cc(NC(=O)CSc2nc(-c3ccccc3Cl)nc3c2c(=O)n(C)c(=O)n3C)no1 | -23 |  |  |
| CCCCNC(=O)OCC(CC)NC(=O)OC(C)C (stereo not drawn) | -25.7 | 4.11 µM [falling, full curve, poor fit] | 1.03 µM [falling, full curve] |
| O=C(N/N=C\c1c(O)ccc2ccccc12)c1ccc(Cn2cccn2)o1 | -18.9 | 0.0259 µM [falling, full curve, poor fit] | 0.13 µM [falling, full curve] |
| CC(Oc1ccc(Br)cc1)C(=O)NCC1(N2CCCCC2)CCCCC1 (stereo not drawn) | -22.6 | 0.164 µM [falling, full curve, poor fit] |  |
| O=C(NCCCN1CCN(c2cccc(Cl)c2)CC1)C1CCC(=O)N1Cc1ccccc1Cl (stereo not drawn) | -29.7 |  |  |
| Nc1nc(SCC(=O)NCCCN2CCOCC2)nc2sc3c(c12)CCC3 | -20.7 |  | 6.51 µM [falling, single point] |
| c1ccc(-c2csc(N3CCN(c4ccccn4)CC3)n2)cc1 | -32.1 | 13 µM [falling, partial curve, poor fit] | 1.16 µM [rising, single point] |
| COC(=O)CSc1ncnc2c1sc1nc(N3CCOCC3)c3c(c12)CCCC3 | 5.18 |  | 16.4 µM [rising, single point] |
| COCCCNC(=S)N/N=C/c1ccccc1O | 18.9 |  | 0.517 µM [falling, single point] |
| Cc1ccc(N)cc1CN1CCCC1=O | 19.1 |  | 20.6 µM [rising, single point] |
| COc1ccc(OC)c(C(c2nnnn2C(C)(C)C)N2CCc3ccccc3C2)c1 (stereo not drawn) |  |  | 29.1 µM [rising, partial curve, poor fit] |
| O=C(c1ccc(F)cc1)c1ccc(N2CCCC2)cc1 | 12.2 |  |  |
| C=CCn1c(=S)[nH]c2ccc(Br)cc2c1=O | -19.5 |  | 1.84 µM [rising, partial curve] |

A portion taken from the entries so far, as a working copy:

| Compound | cell number change [%] | AC50 [1] | AC50 [2] |
| --- | --- | --- | --- |
| CCCCNC(=O)OCC(CC)NC(=O)OC(C)C (stereo not drawn) | -25.7 | 4.11 µM [falling, full curve, poor fit] | 1.03 µM [falling, full curve] |
| O=C(N/N=C\c1c(O)ccc2ccccc12)c1ccc(Cn2cccn2)o1 | -18.9 | 0.0259 µM [falling, full curve, poor fit] | 0.13 µM [falling, full curve] |
| CC(Oc1ccc(Br)cc1)C(=O)NCC1(N2CCCCC2)CCCCC1 (stereo not drawn) | -22.6 | 0.164 µM [falling, full curve, poor fit] |  |
